{"sequences": {"note": "The chains behind the UniProt entries cited, without tags or fusion partners. Where a name states a change or a piece, a line headed by the entry shows the natural chain unless it says otherwise.", "UniProt P9WQH5": "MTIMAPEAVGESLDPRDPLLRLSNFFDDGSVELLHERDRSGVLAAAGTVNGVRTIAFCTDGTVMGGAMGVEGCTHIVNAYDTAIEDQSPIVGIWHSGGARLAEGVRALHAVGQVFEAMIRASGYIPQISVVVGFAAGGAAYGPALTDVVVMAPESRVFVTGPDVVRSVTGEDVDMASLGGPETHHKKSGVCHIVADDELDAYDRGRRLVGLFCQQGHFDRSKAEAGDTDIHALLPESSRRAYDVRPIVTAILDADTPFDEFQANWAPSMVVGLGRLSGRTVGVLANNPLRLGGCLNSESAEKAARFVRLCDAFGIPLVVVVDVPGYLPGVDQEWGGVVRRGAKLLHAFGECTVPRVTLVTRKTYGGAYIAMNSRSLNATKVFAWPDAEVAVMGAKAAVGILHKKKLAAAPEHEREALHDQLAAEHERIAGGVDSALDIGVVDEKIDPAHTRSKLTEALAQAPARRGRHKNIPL"}, "source": "patent US10300071B2", "about": "“Compositions and methods for inhibition of mycobacteria” (priority 2014, dated 2019)", "key": {"[1]": {"molecular_target": "Mtb AccD6 (Mycobacterium tuberculosis, UniProt P9WQH5)", "format": "biochemical", "conditions": "preliminary studies of commercially available herbicides"}, "[2]": {"system": "Mtb strain mc^2-7000", "format": "cell-based, Mycobacterium tuberculosis", "conditions": "preliminary studies of commercially available herbicides"}}, "note": "At least one structure is not confirmed: it was looked up by name or label, or the drawing left a doubt.", "data": [{"compound": "CC/C(=N\\OC/C=C/Cl)C1=C(O)CC(C2CCOCC2)CC1=O", "note": "(stereo not shown) [tepraloxydim, reference compound]", "values": [{"measurement": "Mtb AccD6 inhibition", "setting": "[1]", "result": "only haloxyfop exhibited Mtb AccD6 inhibition"}, {"measurement": "whole Mycobacterium tuberculosis cell inhibition", "setting": "[2]", "result": "none exhibited whole Mycobacterium tuberculosis cell inhibition"}]}, {"compound": "CCO/N=C(\\CC)C1=C(O)CC(c2c(C)cc(C)cc2C)CC1=O", "note": "(stereo not shown) [tralkoxydim, reference compound]", "values": [{"measurement": "Mtb AccD6 inhibition", "setting": "[1]", "result": "only haloxyfop exhibited Mtb AccD6 inhibition"}, {"measurement": "whole Mycobacterium tuberculosis cell inhibition", "setting": "[2]", "result": "none exhibited whole Mycobacterium tuberculosis cell inhibition"}]}]}
